Assay results from PMC7738173.
Results are given in words; binding and its absence hold for the method and conditions named. Binding seen in cells or lysates may run through a third protein. These calls come from enrichment with a bait or labelling near it, and not all partners need be listed.

Sequences of proteins named here, by UniProt entry; tags and fusion partners are left off.
UniProt O95835: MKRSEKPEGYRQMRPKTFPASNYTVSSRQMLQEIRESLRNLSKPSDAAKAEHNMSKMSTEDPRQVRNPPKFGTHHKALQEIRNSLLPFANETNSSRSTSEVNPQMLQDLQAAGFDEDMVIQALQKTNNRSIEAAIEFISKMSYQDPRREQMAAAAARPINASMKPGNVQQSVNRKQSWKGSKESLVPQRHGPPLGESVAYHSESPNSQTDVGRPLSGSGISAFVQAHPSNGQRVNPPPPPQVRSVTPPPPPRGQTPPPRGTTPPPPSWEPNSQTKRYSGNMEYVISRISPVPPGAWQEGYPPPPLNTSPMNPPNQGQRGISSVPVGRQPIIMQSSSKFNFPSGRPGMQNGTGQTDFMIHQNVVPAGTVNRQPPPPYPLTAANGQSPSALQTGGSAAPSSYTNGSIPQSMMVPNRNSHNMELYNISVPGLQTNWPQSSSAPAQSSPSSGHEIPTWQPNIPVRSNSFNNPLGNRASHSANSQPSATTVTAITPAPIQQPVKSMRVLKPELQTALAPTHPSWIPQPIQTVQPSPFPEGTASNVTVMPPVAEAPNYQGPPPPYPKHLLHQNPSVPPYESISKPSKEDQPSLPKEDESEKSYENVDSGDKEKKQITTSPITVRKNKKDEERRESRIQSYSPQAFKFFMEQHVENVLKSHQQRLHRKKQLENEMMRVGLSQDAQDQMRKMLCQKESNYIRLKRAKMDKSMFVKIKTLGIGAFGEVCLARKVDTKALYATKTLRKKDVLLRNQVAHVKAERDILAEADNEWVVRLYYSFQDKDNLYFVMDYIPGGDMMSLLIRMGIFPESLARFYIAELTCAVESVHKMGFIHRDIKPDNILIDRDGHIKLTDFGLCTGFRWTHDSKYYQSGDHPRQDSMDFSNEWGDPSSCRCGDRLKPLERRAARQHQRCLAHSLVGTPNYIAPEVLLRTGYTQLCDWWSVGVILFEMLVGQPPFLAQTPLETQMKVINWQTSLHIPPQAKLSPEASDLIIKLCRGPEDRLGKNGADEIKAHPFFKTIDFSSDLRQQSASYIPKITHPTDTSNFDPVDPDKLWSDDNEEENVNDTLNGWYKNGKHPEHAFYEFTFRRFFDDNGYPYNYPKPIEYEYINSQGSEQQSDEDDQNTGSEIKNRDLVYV
UniProt P27816: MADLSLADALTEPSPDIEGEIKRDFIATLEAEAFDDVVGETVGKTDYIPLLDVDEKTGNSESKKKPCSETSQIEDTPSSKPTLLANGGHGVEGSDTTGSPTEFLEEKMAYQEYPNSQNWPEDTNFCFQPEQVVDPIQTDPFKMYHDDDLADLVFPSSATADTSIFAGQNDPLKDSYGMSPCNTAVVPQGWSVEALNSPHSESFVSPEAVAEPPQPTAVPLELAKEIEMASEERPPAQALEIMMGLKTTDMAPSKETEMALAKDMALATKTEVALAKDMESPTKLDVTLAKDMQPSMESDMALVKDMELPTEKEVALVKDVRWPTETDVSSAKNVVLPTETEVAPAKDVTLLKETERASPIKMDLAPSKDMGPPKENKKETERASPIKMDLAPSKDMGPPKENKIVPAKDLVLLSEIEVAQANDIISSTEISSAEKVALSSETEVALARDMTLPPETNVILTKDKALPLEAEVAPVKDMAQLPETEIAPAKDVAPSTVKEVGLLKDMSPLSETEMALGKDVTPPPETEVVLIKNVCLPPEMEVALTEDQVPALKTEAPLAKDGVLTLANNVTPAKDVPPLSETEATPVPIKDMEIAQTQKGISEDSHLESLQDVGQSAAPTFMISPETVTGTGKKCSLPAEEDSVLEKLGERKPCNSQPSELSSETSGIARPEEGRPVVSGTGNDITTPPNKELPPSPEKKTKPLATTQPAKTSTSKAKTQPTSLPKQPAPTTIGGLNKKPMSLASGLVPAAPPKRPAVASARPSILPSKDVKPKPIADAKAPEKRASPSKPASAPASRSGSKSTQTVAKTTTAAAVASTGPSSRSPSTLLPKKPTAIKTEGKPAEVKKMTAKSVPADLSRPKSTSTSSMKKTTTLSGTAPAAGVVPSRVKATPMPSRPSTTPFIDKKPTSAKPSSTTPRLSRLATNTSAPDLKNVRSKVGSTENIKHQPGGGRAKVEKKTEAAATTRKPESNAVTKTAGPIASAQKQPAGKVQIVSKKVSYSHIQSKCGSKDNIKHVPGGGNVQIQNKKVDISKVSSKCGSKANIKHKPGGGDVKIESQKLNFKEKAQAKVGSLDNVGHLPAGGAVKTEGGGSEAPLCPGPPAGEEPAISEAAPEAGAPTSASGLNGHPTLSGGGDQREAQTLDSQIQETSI

Molecular target: GFP-LATS1 (human) (UniProt O95835)
Assay: affinity purification with mass spectrometry; GFP-LATS1 transiently expressed in HeLa cells, serum starved, untreated or treated with FasL (50 nM) or etoposide (50 uM) for 16 h; lysis in 20 mM HEPES pH 7.5, 150 mM NaCl, 1% NP-40; precipitated with GFP-trap_A; GFP alone as control IP; LC-MS/MS, MaxQuant label-free quantitation

Substance: MAP4 (from UniProt P27816 1-1152)
- binding: binds
